{
  "source": "paper PMC10518010",
  "about": "“The leaderless communication peptide (LCP) class of quorum-sensing peptides is broadly distributed among Firmicutes” (Nature Communications, 2023)",
  "key": {"[1]": {"biological_target": "T1, FITC-labeled synthetic LCPss (S. salivarius)", "T1 sequence (peptide, FITC (fluorescein) label, position not stated)": "MWLILLFL", "experiment": "fluorescence polarisation; competition: preformed RopB (250 nM)-labeled LCPss (10 nM) complex challenged with unlabeled peptides; both purified"}, "[2]": {"biological_target": "RopBss (RopB homolog, cytosolic LCP receptor of Streptococcus salivarius) (S. salivarius)", "experiment": "fluorescence polarisation; competition: preformed RopB (250 nM)-labeled LCPss (10 nM) complex challenged with unlabeled peptides; both purified"}},
  "note": "These are yes or no findings as the source states them, for the method shown. Binding calls can cover weak binding; strength is not graded here.",
  "data": [
    {"molecule": "RopBss (RopB homolog, cytosolic LCP receptor of Streptococcus salivarius) (S. salivarius)", "values": [
      {"measurement": "binding", "setting": "[1]", "result": "binds"}
    ]},
    {"molecule": "MWLILLFL", "note": "[synthetic LCPss (unlabeled)]", "values": [
      {"measurement": "binding", "setting": "[2]", "result": "binds"}
    ]}
  ]
}
